{
  "sequences": {"note": "Chains of the proteins cited; added tags and fusions are not shown.", "UniProt P53350, whole entry, looked up": "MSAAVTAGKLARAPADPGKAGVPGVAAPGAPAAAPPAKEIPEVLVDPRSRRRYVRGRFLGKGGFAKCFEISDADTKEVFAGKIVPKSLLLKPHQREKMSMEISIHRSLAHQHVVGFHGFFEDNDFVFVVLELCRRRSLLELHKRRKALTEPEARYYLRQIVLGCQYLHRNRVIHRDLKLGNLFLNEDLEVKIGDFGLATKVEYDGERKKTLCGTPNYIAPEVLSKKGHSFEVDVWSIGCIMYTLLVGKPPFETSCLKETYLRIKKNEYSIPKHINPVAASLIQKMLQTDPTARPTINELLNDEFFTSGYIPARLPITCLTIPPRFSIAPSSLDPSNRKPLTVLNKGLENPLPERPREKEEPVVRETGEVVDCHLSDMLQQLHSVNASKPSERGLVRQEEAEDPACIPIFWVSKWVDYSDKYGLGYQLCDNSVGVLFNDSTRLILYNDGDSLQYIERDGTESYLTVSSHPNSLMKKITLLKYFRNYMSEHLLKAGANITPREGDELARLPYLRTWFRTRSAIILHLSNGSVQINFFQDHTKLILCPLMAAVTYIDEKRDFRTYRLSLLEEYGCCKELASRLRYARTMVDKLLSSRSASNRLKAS"},
  "source": "PubChem BioAssay AID720504",
  "about": "(National Center for Advancing Translational Sciences (NCATS), 2013)",
  "note": "About 10,000 (2.8%) of roughly 360,000 compounds were called active. This list was built around the results that the source calls inconclusive (neither active nor inactive); the mix of calls is not that of the screen. Calls come from the whole dose curve; as a rule, active = well fitted inhibition curve with a large enough effect; inconclusive = small, poorly fitted or top-dose-only effect; inactive = flat fitted curve, though single readings scatter. Potencies beside an inconclusive call are fits to weak or partial responses and may not hold up. % is set by controls: 0 for no effect and ±100 for the full control effect; potency is the fitted concentration of half-maximal effect.",
  "data": [
    {"molecular_target": "Serine/threonine-protein kinase PLK1 (Homo sapiens) (UniProt P53350)", "assay": "qHTS for Inhibitors of PLK1-PDB (polo-like kinase 1 - polo-box domain): Primary Screen; note: nearly all actives have a fitted effect of over 65% in size; for max response, negative = inhibition: series mostly up to about 57 µM", "details": "Plk1 PBD binding of FITC phosphopeptide, fluorescence polarization", "values": [
      {"compound": "COCc1nnc(NC(=O)c2sc3ccccc3c2Cl)s1", "Potency": "inconclusive: 23.8 µM [inhibitor, single point]"},
      {"compound": "Cc1cc(=O)[nH]c(N/N=C/c2ccco2)n1", "max response, negative = inhibition": "inactive: -3.75%"},
      {"compound": "O=C(Nc1ccc2c(c1)OCO2)Nc1ccc(Br)cn1", "max response, negative = inhibition": "inactive: -2.81%"},
      {"compound": "CCCOc1ccc(C(=O)N/N=C/c2ccc(-c3ccc(S(=O)(=O)Nc4ncccn4)cc3)o2)cc1", "max response, negative = inhibition": "inconclusive: -34.6% [inhibitor]"},
      {"compound": "C#CCN1C=C(C(=O)OCC)C(C)N(Cc2ccccc2I)S1(=O)=O", "note": "(stereo not drawn)", "max response, negative = inhibition": "inactive: 0.713%"},
      {"compound": "O=c1nc2s/c(=C\\c3ccc(-c4ccccc4[N+](=O)[O-])o3)c(=O)n2nc1-c1ccccc1", "Potency": "inconclusive: 11.9 µM [inhibitor, partial curve]"},
      {"compound": "O=C(Cc1ccc([N+](=O)[O-])cc1)N/N=C/c1ccccc1F", "max response, negative = inhibition": "inactive: 1.27%"},
      {"compound": "Cc1occc1C(=O)NNC(=O)c1ccccc1[N+](=O)[O-]", "Potency": "inconclusive: 4.74 µM [inhibitor, partial curve]"},
      {"compound": "O=C(CCC1CCCN(Cc2ccc3c(c2)OCCO3)C1)NCc1ccc(F)c(F)c1", "note": "(stereo not drawn)", "Potency": "inconclusive: 7.52 µM [inhibitor, single point]"},
      {"compound": "CCCCC[C@@H]1C=C(C(=O)O)[C@H](c2ccc(CC)cc2)N1S(=O)(=O)c1ccc(C)cc1", "Potency": "active: 26.7 µM"},
      {"compound": "O=C(O)c1ccccc1NC(c1ccccc1)c1ccc(Cl)cc1", "note": "(stereo not drawn)", "Potency": "inconclusive: 23.8 µM [inhibitor, single point]"},
      {"compound": "COc1cccc(NC(=O)C2(C)CCN2C(=O)CCC2CCCC2)c1", "note": "(stereo not drawn)", "max response, negative = inhibition": "inactive: 1.49%"},
      {"compound": "O=C(Nc1ccc2c(c1)C(=O)NC2=O)c1ccc(S(=O)(=O)N2CCCC2)cc1", "max response, negative = inhibition": "inconclusive: -30.5% [inhibitor]"},
      {"compound": "Cn1c(CCNC(=O)C2CCCCC2)nc2cc(NC(=O)c3cccs3)ccc21", "Potency": "inconclusive: 29.9 µM [inhibitor, single point]"},
      {"compound": "CCOC(=O)C(NC(=O)c1ccc(OC)cc1)(N1CCOCC1)C(F)(F)F", "note": "(stereo not drawn)", "Potency": "inconclusive: 37.7 µM [inhibitor, single point]"},
      {"compound": "CCNC(=O)C1CCCN1C(=O)C(CCCN=C(N)N)NC(=O)C(CC(C)C)NC(=O)C(Cc1cn(Cc2ccccc2)cn1)NC(=O)C(Cc1ccc(O)cc1)NC(=O)C(CO)NC(=O)C(Cc1c[nH]c2ccccc12)NC(=O)C(Cc1cnc[nH]1)NC(=O)C1CCC(=O)N1", "note": "(stereo not drawn)", "Potency": "inconclusive: 26.7 µM [inhibitor, partial curve]"},
      {"compound": "NC(=O)C1=C[C@@H](c2coc3ccccc3c2=O)C[C@@H](OCc2ccc(CO)cc2)O1", "Potency": "inconclusive: 33.6 µM [inhibitor, single point]"},
      {"compound": "O=c1nc(/C=C/c2cccn2-c2ccc([N+](=O)[O-])cc2)cc(C(F)(F)F)[nH]1", "Potency": "inconclusive: 26.7 µM [inhibitor, single point]"},
      {"compound": "Cc1ccc(S(=O)(=O)C(C#N)c2nc3ccccc3nc2N2CCCC2)cc1C", "note": "(stereo not drawn)", "Potency": "inconclusive: 15.8 µM [inhibitor, partial curve]"},
      {"compound": "N#CC1(Nc2ccc3ccccc3c2)CCCC1", "max response, negative = inhibition": "inactive: -15.6%"},
      {"compound": "Cc1cc(C)c(C2C(C#N)=C(N)Oc3n[nH]c(C)c32)cc1CN1CCCC1", "note": "(stereo not drawn)", "Potency": "inconclusive: 29.9 µM [inhibitor, partial curve]"},
      {"compound": "CC(C)NC(=O)[C@@H]1CSC2c3ccccc3C(=O)N21", "note": "(stereo partly drawn)", "max response, negative = inhibition": "inconclusive: -34.5% [inhibitor]"},
      {"compound": "Cc1nc2[nH]c(=S)[nH]c2c(=O)[nH]1", "max response, negative = inhibition": "inactive: -0.862%"},
      {"compound": "O=C(O)CCCN=CC1=C(O)C(C(=O)c2ccccc2)CCC1=O", "note": "(stereo not drawn)", "max response, negative = inhibition": "inconclusive: -33.7% [inhibitor]"},
      {"compound": "CCOc1ccccc1CNc1ccc(O)cc1", "Potency": "inconclusive: 37.7 µM [inhibitor, single point]"},
      {"compound": "O=C(CCn1cnc2ccccc21)N/N=C/c1ccc(O)cc1", "max response, negative = inhibition": "inactive: -5.29%"},
      {"compound": "Oc1[nH]c2ccc(Br)cc2c1N=NC(=S)NCC1CCCO1", "note": "(stereo not drawn)", "Potency": "inconclusive: 37.7 µM [inhibitor, single point]"},
      {"compound": "CC(C)c1ccccc1-n1c(SCc2cc(=O)oc3ccc4ccccc4c23)nnc1-c1cccnc1", "Potency": "inconclusive: 75.2 µM [inhibitor, partial curve]"},
      {"compound": "Cc1nc(SCC(=O)NCC2CCCO2)c2oc3ccccc3c2n1", "note": "(stereo not drawn)", "Potency": "inconclusive: 0.67 µM [inhibitor, single point]"},
      {"compound": "COc1ccc2c(CC(=O)OCC(=O)NC(N)=O)coc2c1", "Potency": "inconclusive: 23.8 µM [inhibitor, single point]"},
      {"compound": "O=C(NCCc1c[nH]c2ccccc12)/C(=C\\c1cccs1)NC(=O)c1ccccc1", "Potency": "active: 26.7 µM"},
      {"compound": "CCOC(=O)c1c(-c2ccccc2)csc1NC(=O)c1cc(S(=O)(=O)N2CCOCC2)ccc1C", "Potency": "inconclusive: 23.8 µM [inhibitor, single point]"},
      {"compound": "OC(COc1ccc2c(c1)OCO2)CN1CCCC1", "note": "(stereo not drawn)", "max response, negative = inhibition": "inconclusive: 1.36% [inhibitor]"},
      {"compound": "CC1(C)CC(=O)C(=Cc2cn(CCC#N)nc2-c2ccc(Cl)cc2)C(=O)C1", "Potency": "active: 2.38 µM"},
      {"compound": "CC(=O)N1CC(C)Sc2ccc(S(=O)(=O)NCCc3ccccc3)cc21", "note": "(stereo not drawn)", "Potency": "inconclusive: 29.9 µM [inhibitor, single point]"},
      {"compound": "O=C(O)c1[nH]c2ccccc2c1C(c1cc(Cl)cc([N+](=O)[O-])c1O)c1c(C(=O)O)[nH]c2ccccc12", "Potency": "active: 7.52 µM"},
      {"compound": "O=[N+]([O-])/C=C/c1cn(Cc2ccc(F)cc2)c2ccccc12", "Potency": "inconclusive: 8.44 µM [inhibitor, partial curve]"},
      {"compound": "Cc1ccc(NC(=S)Nc2nc(CC(=O)Nc3ccccc3)cs2)cc1", "Potency": "inconclusive: 33.6 µM [inhibitor, single point]"},
      {"compound": "CCN(C(=O)CSc1ccc2ccccc2n1)C1CCCCC1", "Potency": "inconclusive: 26.7 µM [inhibitor, single point]"},
      {"compound": "CN(C)c1ccc(N2CC(C)(C)C2=O)cc1", "max response, negative = inhibition": "inactive: -3.3%"},
      {"compound": "CCOC(=O)C1C(c2ccc3c(c2)OCO3)NC(=O)NC1(O)C(F)(F)F", "note": "(stereo not drawn)", "Potency": "active: 2.99 µM"},
      {"compound": "O=C(NCC1CCCN(Cc2ccc3nonc3c2)C1)c1ccc(F)cc1", "note": "(stereo not drawn)", "Potency": "inconclusive: 37.7 µM [inhibitor, single point]"},
      {"compound": "Cc1ccc(S(=O)(=O)NCCOC(=O)Nc2sc(=S)n(C)c2C)cc1", "Potency": "inconclusive: 26.7 µM [inhibitor, partial curve]"},
      {"compound": "CCN(C(=O)C(C)Sc1ccc(S(=O)(=O)N2CCOCC2)cn1)c1ccccc1", "note": "(stereo not drawn)", "Potency": "inconclusive: 23.8 µM [inhibitor, single point]"},
      {"compound": "CC1=NN(c2ccc(C)cc2C)C(=O)C1C(c1ccccc1O)C1C(=O)N(c2ccc(C)cc2C)N=C1C", "note": "(stereo not drawn)", "Potency": "inconclusive: 13.4 µM [inhibitor, partial curve]"},
      {"compound": "CCc1ccc(/C=C2/C(=O)N(CC)C(=S)N2C)s1", "Potency": "active: 23.8 µM"},
      {"compound": "S=C(NCc1ccccc1)Nc1ccc(Oc2ccccc2)cc1", "Potency": "inconclusive: 29.9 µM [inhibitor, partial curve]"},
      {"compound": "C=CCn1c(SCC(=O)N2CCOCC2)nc2sc3c(c2c1=O)CCCC3", "max response, negative = inhibition": "inactive: -3.14%"},
      {"compound": "COc1cc(/C=C2/C(=O)NN(c3ccc(Cl)cc3)C2=O)ccc1OC(=O)c1ccco1", "Potency": "active: 2.67 µM"},
      {"compound": "O=C1N(O)C2(C=CCCC2)/C(=N\\O)C12CCCCC2", "note": "(stereo not drawn)", "Potency": "active: 29.9 µM"},
      {"compound": "Cc1ccc(/C([O-])=C(/C(=S)NCc2ccc3c(c2)OCO3)[n+]2ccc(N(C)C)cc2)c(C)c1", "Potency": "inconclusive: 33.6 µM [inhibitor, partial curve]"},
      {"compound": "CCOC(=O)/C(=C/c1ccc(OC(=O)c2ccncc2)cc1)C(C)=O", "Potency": "inconclusive: 29.9 µM [inhibitor, partial curve]"},
      {"compound": "CC(=O)N1CCc2c(sc(NC(=O)C3COc4ccccc4O3)c2C(N)=O)C1", "note": "(stereo not drawn)", "Potency": "active: 18.9 µM"},
      {"compound": "CC/C(=N\\Nc1ccc([N+](=O)[O-])cc1[N+](=O)[O-])c1ccc(O)cc1", "max response, negative = inhibition": "inactive: -6.21%"},
      {"compound": "Cc1ccc(Cc2c(-c3ccco3)nc3c(C)cc(Br)cn23)cc1", "Potency": "inconclusive: 13.4 µM [inhibitor, partial curve]"},
      {"compound": "COc1cc(C(C)=O)ccc1OCC(O)CN1CCN(c2ccccn2)CC1", "note": "(stereo not drawn)", "Potency": "inconclusive: 23.8 µM [inhibitor, partial curve]"},
      {"compound": "NC(=O)CC(NSc1ccccc1[N+](=O)[O-])C(=O)O", "note": "(stereo not drawn)", "Potency": "active: 3.77 µM"},
      {"compound": "COc1ccc(Cl)cc1C(=O)NNC(=O)C1COc2ccccc2O1", "note": "(stereo not drawn)", "Potency": "active: 23.8 µM"},
      {"compound": "CCOC(=O)N1CCC(NC(=O)CSCc2nc(-c3ccc(OC)cc3)oc2C)CC1", "Potency": "inconclusive: 23.8 µM [inhibitor, partial curve]"},
      {"compound": "O=[N+]([O-])c1ccc(O)c(/C=N/NC(=S)Nc2ccc(Cl)cc2Cl)c1", "Potency": "inconclusive: 23.8 µM [inhibitor, single point]"},
      {"compound": "CC(C)CNS(=O)(=O)c1ccc(CCC(=O)N2CCC(C(N)=O)CC2)cc1", "max response, negative = inhibition": "inactive: -9.26%"},
      {"compound": "N#Cc1c(-c2ccc(F)cc2)cc(-c2cccs2)nc1SCC(=O)O", "Potency": "inconclusive: 26.7 µM [inhibitor, single point]"},
      {"compound": "O=C1N(c2ccc(Cl)cc2)C(c2ccccc2)N2CCCN12", "note": "(stereo not drawn)", "Potency": "active: 18.9 µM"},
      {"compound": "N#Cc1ccc(OCC(=O)N2CCN(S(=O)(=O)c3cccs3)CC2)cc1", "max response, negative = inhibition": "inactive: 2.57%"},
      {"compound": "COc1ccc(N2CCC(CNC(=S)Nc3c(C)cc(C)cc3C)C2)cc1", "note": "(stereo not drawn)", "Potency": "active: 11.9 µM"},
      {"compound": "C=CCOC(=O)COc1ccc2c(C)c(C)c(=O)oc2c1", "max response, negative = inhibition": "inactive: -9.51%"},
      {"compound": "COc1cccc(/C=N/n2c(COc3ccccc3)n[nH]c2=S)c1O", "Potency": "inconclusive: 23.8 µM [inhibitor, single point]"},
      {"compound": "COc1ccccc1C1OC(c2cccc([N+](=O)[O-])c2)=NN1C(C)=O", "note": "(stereo not drawn)", "Potency": "inconclusive: 18.9 µM [inhibitor, partial curve]"}
    ]}
  ]
}
